Source: publication PMC12620516
These are yes or no findings as the source states them, for the method shown. In cells and extracts the contact can be indirect. Some results given as binding are weak or reduced against the parent protein; the word gives no strength.

Amino acid sequences for entries named in this document (tags omitted). Residues count along the entry.
UniProt Q8K2C6, residues 37-310: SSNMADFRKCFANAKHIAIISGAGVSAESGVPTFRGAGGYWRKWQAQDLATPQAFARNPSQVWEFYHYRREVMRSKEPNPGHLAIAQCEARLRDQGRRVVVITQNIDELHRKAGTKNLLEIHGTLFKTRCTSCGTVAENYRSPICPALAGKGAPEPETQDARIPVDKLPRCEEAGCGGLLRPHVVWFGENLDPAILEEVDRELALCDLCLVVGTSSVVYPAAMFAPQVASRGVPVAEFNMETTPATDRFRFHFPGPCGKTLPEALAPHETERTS

Target: Sirtuin 5 (UniProt Q8K2C6)
Experiment: co-IP; HEK293T cells co-transfected with Sirt5 and Slc25a4 plasmids for 48 h; IP lysis buffer; overnight at 4 °C with anti-Sirt5 and anti-Slc25a4 antibodies; protein A/G magnetic beads; Western blot

binding: binds
B1: Solute Carrier Family 25 Member 4 (protein, UniProt P48962 1-298)
chain: MGDQALSFLKDFLAGGIAAAVSKTAVAPIERVKLLLQVQHASKQISAEKQYKGIIDCVVRIPKEQGFLSFWRGNLANVIRYFPTQALNFAFKDKYKQIFLGGVDRHKQFWRYFAGNLASGGAAGATSLCFVYPLDFARTRLAADVGKGSSQREFNGLGDCLTKIFKSDGLKGLYQGFSVSVQGIIIYRAAYFGVYDTAKGMLPDPKNVHIIVSWMIAQSVTAVAGLVSYPFDTVRRRMMMQSGRKGADIMYTGTLDCWRKIAKDEGANAFFKGAWSNVLRGMGGAFVLVLYDEIKKYV
